Experimental data as given in article PMC4182762.
These are yes or no findings as the source states them, for the method shown. Binding seen in cells or lysates may run through a third protein. Some results given as binding are weak or reduced against the parent protein; the word gives no strength.

The chains behind the UniProt entries cited, without tags or fusion partners.
UniProt Q9Z0H3: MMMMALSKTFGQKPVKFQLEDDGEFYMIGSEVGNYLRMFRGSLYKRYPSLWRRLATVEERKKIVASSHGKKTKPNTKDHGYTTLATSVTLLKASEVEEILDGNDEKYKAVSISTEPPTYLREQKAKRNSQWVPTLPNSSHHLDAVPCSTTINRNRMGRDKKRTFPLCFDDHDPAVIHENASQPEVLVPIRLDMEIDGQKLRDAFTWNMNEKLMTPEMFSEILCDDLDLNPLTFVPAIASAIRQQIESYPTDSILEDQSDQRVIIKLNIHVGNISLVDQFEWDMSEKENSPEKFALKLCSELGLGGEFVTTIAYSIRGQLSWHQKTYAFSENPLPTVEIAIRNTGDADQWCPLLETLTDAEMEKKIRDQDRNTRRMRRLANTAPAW
UniProt Q3TKT4: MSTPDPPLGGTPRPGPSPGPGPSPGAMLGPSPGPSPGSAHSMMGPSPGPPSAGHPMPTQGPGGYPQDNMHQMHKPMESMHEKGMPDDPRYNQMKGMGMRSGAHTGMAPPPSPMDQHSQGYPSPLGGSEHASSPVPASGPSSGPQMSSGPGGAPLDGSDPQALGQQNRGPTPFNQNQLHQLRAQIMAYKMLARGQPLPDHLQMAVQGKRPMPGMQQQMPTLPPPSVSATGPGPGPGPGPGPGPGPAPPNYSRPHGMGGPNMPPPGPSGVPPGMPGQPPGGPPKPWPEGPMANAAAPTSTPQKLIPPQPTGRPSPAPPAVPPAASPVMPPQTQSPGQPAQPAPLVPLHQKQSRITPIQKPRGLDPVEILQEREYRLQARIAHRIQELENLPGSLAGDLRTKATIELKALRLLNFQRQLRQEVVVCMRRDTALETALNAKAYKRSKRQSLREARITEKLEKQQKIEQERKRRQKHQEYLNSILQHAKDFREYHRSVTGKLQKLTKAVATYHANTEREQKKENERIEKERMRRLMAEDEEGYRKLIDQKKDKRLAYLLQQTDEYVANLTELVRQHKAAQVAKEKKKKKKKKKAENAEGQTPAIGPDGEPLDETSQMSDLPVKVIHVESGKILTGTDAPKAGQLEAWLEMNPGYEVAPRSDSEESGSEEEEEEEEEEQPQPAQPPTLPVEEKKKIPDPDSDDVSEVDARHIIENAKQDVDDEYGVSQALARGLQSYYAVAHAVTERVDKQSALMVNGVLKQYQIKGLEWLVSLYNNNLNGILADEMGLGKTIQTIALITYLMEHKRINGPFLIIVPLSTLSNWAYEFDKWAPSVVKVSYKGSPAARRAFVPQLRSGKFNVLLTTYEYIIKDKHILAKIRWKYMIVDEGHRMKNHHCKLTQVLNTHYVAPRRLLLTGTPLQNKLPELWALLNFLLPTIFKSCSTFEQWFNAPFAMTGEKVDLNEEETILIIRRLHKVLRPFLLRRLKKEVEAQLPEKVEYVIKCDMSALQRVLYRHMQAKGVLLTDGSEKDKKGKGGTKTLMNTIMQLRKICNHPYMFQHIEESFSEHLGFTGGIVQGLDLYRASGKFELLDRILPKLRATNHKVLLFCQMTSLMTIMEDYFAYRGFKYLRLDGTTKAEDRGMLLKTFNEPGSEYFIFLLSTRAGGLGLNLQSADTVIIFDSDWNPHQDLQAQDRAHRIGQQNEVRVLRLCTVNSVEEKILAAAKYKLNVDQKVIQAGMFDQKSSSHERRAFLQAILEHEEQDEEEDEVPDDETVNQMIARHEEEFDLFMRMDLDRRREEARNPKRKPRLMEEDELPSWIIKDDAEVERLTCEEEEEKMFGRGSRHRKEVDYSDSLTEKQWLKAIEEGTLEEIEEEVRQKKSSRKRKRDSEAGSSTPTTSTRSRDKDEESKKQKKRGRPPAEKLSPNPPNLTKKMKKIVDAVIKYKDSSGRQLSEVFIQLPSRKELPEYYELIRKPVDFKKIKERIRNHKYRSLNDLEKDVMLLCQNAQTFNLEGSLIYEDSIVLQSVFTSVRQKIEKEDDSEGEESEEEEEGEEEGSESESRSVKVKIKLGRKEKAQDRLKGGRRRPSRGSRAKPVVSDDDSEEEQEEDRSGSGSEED
UniProt O09106: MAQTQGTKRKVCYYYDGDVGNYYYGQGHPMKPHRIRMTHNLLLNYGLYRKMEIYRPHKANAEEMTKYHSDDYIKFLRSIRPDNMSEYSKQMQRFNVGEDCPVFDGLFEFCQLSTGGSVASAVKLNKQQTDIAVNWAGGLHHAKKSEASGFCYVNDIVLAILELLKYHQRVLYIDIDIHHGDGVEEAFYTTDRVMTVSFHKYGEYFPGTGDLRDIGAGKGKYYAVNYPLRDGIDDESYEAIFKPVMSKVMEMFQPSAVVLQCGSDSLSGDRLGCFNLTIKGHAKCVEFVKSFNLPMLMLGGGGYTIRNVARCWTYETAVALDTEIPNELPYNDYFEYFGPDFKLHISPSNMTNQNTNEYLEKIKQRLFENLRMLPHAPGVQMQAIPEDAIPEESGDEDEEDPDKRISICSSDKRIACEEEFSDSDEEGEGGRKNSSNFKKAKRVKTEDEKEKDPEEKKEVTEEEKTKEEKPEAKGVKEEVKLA
UniProt P70288: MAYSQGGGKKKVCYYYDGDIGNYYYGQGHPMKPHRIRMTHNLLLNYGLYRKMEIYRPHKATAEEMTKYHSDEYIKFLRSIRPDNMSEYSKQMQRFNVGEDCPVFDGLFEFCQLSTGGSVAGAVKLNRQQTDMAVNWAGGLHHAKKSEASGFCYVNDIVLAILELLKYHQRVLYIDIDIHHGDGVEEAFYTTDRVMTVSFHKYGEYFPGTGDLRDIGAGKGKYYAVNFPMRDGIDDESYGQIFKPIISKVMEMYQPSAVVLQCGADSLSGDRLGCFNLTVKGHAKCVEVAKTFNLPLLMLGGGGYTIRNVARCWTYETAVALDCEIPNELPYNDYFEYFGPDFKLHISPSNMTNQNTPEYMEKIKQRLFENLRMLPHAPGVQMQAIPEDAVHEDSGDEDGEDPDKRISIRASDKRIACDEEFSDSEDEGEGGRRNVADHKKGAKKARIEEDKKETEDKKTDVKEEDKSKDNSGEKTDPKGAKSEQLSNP
UniProt P10085: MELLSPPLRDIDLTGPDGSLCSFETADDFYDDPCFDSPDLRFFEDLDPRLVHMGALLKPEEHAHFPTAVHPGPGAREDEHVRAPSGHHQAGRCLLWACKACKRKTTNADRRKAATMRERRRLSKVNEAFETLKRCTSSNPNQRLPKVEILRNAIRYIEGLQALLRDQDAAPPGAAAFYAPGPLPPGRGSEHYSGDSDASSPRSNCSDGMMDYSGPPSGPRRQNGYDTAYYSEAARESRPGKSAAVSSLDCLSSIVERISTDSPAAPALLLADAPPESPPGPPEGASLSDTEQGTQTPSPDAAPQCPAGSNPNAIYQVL

Key:
[1] = molecular target: BAF47/INI1/SNF5/SMARCB1 (mouse (endogenous in C2C12)) (UniProt Q9Z0H3); assay: co-IP; endogenous co-IP from nuclear extracts of early differentiating C2C12 myoblasts (24 h DM); antibodies against BRG1 or BAF47; western blot
[2] = molecular target: Brahma-Related Gene 1 (mouse (endogenous in C2C12)) (UniProt Q3TKT4); assay: co-IP; endogenous co-IP from nuclear extracts of C2C12 myoblasts, proliferating (GM) or after 24 h in differentiation medium (DM); micrococcal nuclease, sonication; 5 µg antibody (MyoD, BAF47 or BRG1) overnight at 4°C; washes 150 mM NaCl, 0.5% Triton X-100; western blot
[3] = molecular target: BAF47/INI1/SNF5/SMARCB1 (mouse (endogenous in C2C12)) (UniProt Q9Z0H3); assay: as above

binding [1] | binding [2] | binding [3] | Substance
binds weakly | – | – | Brahma-Related Gene 1 (from UniProt Q3TKT4 1-1613)
– | binds | binds | HDAC1 (from UniProt O09106 1-482)
– | binds | binds | HDAC2 (from UniProt P70288 1-488)
– | binds | binds | MyoD (from UniProt P10085 1-318)
